The results in this text go back to article PMC10944485, “Structure of full-length ERGIC-53 in complex with MCFD2 for cargo transport” (Nature Communications, 2024).

By UniProt entry, the sequences of proteins in these tests, tags left out. Where a name states a change or a piece, a line headed by the entry shows the natural chain unless it says otherwise.
UniProt P49257: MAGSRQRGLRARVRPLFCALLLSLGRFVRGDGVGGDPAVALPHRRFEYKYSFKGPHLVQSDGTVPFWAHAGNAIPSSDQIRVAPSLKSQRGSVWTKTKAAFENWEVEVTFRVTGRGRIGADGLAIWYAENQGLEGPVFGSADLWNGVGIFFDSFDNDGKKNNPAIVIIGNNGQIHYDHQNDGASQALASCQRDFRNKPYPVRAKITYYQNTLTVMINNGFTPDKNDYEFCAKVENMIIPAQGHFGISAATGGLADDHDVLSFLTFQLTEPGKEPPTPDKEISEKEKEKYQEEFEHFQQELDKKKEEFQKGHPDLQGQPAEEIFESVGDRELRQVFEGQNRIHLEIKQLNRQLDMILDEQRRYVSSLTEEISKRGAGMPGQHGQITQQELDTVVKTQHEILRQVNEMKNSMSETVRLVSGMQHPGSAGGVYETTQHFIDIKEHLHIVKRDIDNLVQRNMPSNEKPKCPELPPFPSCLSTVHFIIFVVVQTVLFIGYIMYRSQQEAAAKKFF

The target of this test is ERGIC-53 ΔH34 mutant with a C-terminal FLAG (human) (UniProt P49257). Nature of the test: cryo-EM structure; ERGIC-53 ΔH34-MCFD2 complex, 1.7 mg/ml; both purified.

No constants are given. Whether binding was seen depends on the method and setting. Binding calls can cover weak binding; strength is not graded here.

B1: human MCFD2 lumen domain (residues 27-146) (domain or fragment, UniProt Q8NI22 27-146, looked up)
chain: EEPAASFSQPGSMGLDKNTVHDQEHIMEHLEGVINKPEAEMSPQELQLHYFKMHDYDGNNLLDGLELSTAITHVHKEEGSEQAPLMSEDELINIIDGVLRDDDKNNDGYIDYAEFAKSLQ
notes: MCFD2, human, lumen domain, residues 27-146, in pET15b; Thrombin cleavage of the pET15b His tag probably leaves a few vector residues at the N-terminus (surmised); also called multiple coagulation factor deficiency 2; source: E. coli BL21 (DE3), purified (Ni-NTA, MonoQ, thrombin cleavage, SEC); not shown: His tag, N-terminal, cleaved
As to B1, the binding entry was “binds”.
